Results: patent US12029804B2, “Peptide for promoting mucous membrane permeation and composition containing same” (SOONCHUNHYANG UNIVERSITY INDUSTRY ACADEMY COOPERATION …, priority 2018, dated 2024)
Where a name gives a salt, the structure may show the parent alone.

Assay: in vivo
Details: male, Sprague-Dawley, rat, inhaled or intranasal, 1 mg/kg
Method: Male Sprague-Dawley (SD) rats (280-300 g) were acclimated for a minimum of two days in individual cages in a laboratory animal room. At this time, the rats were allowed to freely consume food and water before an experiment, provided with light for 12 hours, and maintained in the dark state for 12 hours. One day before the experiment, the animals were provided only with water and fasted.
The rats prepared in above 1 were divided into each group of three to five rats so as to prepare a total of nine groups, after which each of the test substances prepared was intranasally administered into the group. At this time, the dosage of each drug was 1.0, 2.5 or 5.0 mg/kg per rat.
Before intranasal administration, the rat was anesthetized and cannulated into the femoral veno-artery using PE-50. The solution was carefully administered to the nostril of the rat using a micropipette (Eppendof) so as not to affect the nasal mucous membrane. At this time, the rat's body was laid on the floor and the head was placed while leaning against the wall.
The collected blood was centrifuged at 13,000 rpm for 10 minutes so as to obtain 100 μl of plasma. After adding 200 μl of methanol to the obtained plasma, the resulting solution was subjected into vortex, and then centrifuged again at 13,000 rpm for 10 minutes to carry out deproteinization, and the supernatant was quantitatively analyzed by HPLC-MS.

- AUC(0-t): 71.3 ng·h/mL
- Cmax: 54.1 ± 3.19 ng/mL
- Tmax: 17.5 min
SMILES: CC(C)(C(=O)O)c1ccc(C(O)CCCN2CCC(C(O)(c3ccccc3)c3ccccc3)CC2)cc1 (stereo not drawn) [Fexofenadine, fexofenadine HCl, reference compound]
